{"source": "patent US20250122253A1", "about": "“REGULATING MICROTUBULE DYNAMICS AS A THERAPEUTIC TARGET FOR NERVE REPAIR” (City University of Hong Kong, priority 2023, published 2025)", "origin": "cited, not measured here", "tested_on": "spinal neurons", "details": "background statement; paclitaxel in rats; cited from earlier work", "note": "At least one compound was matched to its structure with a doubt left.", "data": [{"compound": "Nc1nc(=O)c2nc(CNc3ccc(C(=O)N[C@@H](CCC(=O)O)C(=O)O)cc3)cnc2[nH]1", "note": "[folate]", "values": [{"measurement": "axon regeneration after spinal cord injury", "value": "enhanced axon regeneration"}]}]}
